# Measured values taken from PubChem BioAssay AID270 (DTP/NCI, 2004).
# The list does not hold the whole screen: it gathers some chemical classes. Other doses and runs of a compound may be missing. T/C gives the treated animals as a percentage of the vehicle group. Some entries show no survivor count and are marked so; the dose need not have been tolerated. Schedule codes are those of the source, taken here to give the interval after Q, in days (D) or hours (H), and the number of doses after X. Some doses have a count of surviving animals in place of a T/C: the source files T/C as zero there, which appears to mark a toxic dose or a test without result, not a measured value. Counts of survivors are from the toxicity check (mostly the fifth day) where no day follows; animals may have died later. Some doses were run more than once; the results are listed from low to high. Where survival is the endpoint, the PubChem record calls one and a half times the control and up active, and a quarter to a half above the control has no call in these data; cut-offs in other NCI protocols can differ. Some T/C values are followed by the survivors on the day toxicity was checked, most often the fifth; where neither a count nor a note follows, no animal had died by that day.
# System: BDF1 mice, s.c. Lewis lung carcinoma, T/C %
# Assay: NCI In Vivo Anticancer Drug Screen. Data for tumor model Lewis Lung Carcinoma (subcutaneous) in B6D2F1 (BDF1) mice
# Procedure: The antitumor activity of compounds was measured in mice bearing transplantable tumors. Survival or tumor size were measured and the results are expressed as the measurement made in the treated group (T) divided by the measurement made in the vehicle treated control group (C). The tumor model used in this assay is Lewis Lung Carcinoma (subcutaneous) in B6D2F1 (BDF1) mice
# [1] = T/C endpoint: mean tumor weight, dose: 3.0 mg/kg/injection, schedule: Q01DX011 (ip), vehicle: other, evaluation day not shown, higher T/C = larger tumour
# [2] = T/C endpoint: mean tumor weight, dose: 6.0 mg/kg/injection, schedule: Q01DX011 (ip), vehicle: other, evaluation day not shown, higher T/C = larger tumour
# [3] = T/C endpoint: mean tumor weight, dose: 2.0 mg/kg/injection, schedule: Q01DX011 (ip), vehicle: saline, evaluation day not shown, higher T/C = larger tumour
# [4] = T/C endpoint: mean tumor weight, dose: 4.0 mg/kg/injection, schedule: Q01DX011 (ip), vehicle: saline, evaluation day not shown, higher T/C = larger tumour
# [5] = T/C endpoint: median survival time, dose: 1.56 mg/kg/injection, schedule: Q01DX009 (ip), vehicle: Klucel (hydroxypropylcellulose) (HPC), higher T/C = longer survival
# [6] = T/C endpoint: median survival time, dose: 3.12 mg/kg/injection, schedule: Q01DX009 (ip), vehicle: Klucel (hydroxypropylcellulose) (HPC), higher T/C = longer survival
# [7] = T/C endpoint: median survival time, dose: 3.0 mg/kg/injection, schedule: Q01DX009 (ip), vehicle: saline with Tween-80, higher T/C = longer survival
# [8] = T/C endpoint: median survival time, dose: 6.0 mg/kg/injection, schedule: Q01DX009 (ip), vehicle: saline with Tween-80, higher T/C = longer survival
# [9] = T/C endpoint: median survival time, dose: 24.0 mg/kg/injection, schedule: Q01DX009 (ip), vehicle: saline with Tween-80, higher T/C = longer survival
smiles,measurement,setting,value
O=C(O)C(=O)Cc1ccc(N(CCCl)CCCl)cc1,T/C,[1],86 % of control [survivor count not shown]
same,T/C,[2],52 % of control [survivor count not shown]
same,T/C,"T/C endpoint: mean tumor weight, dose: 12.0 mg/kg/injection, schedule: Q01DX011 (ip), vehicle: other, evaluation day not shown, higher T/C = larger tumour",32 % of control [survivor count not shown]
CC(C(=O)O)N(CCCl)CCCl (stereo unspecified),T/C,[3],87 % of control [survivor count not shown]
same,T/C,[4],76 % of control [survivor count not shown]
CC(Cl)CNCC(C)Cl (stereo unspecified),T/C,"T/C endpoint: median survival time, dose: 12.5 mg/kg/injection, schedule: Q01DX009 (ip), vehicle: saline, higher T/C = longer survival",94 % of control [survivor count not shown]
same,T/C,"T/C endpoint: median survival time, dose: 25.0 mg/kg/injection, schedule: Q01DX009 (ip), vehicle: saline, higher T/C = longer survival",104 % of control [survivor count not shown]
same,T/C,"T/C endpoint: median survival time, dose: 50.0 mg/kg/injection, schedule: Q01DX009 (ip), vehicle: saline, higher T/C = longer survival",108 % of control [survivor count not shown]
ClCCN1CCN(CCCl)CC1,T/C,"T/C endpoint: median survival time, dose: 0.06 mg/kg/injection, schedule: Q01DX009 (ip), vehicle: saline, higher T/C = longer survival",103 % of control [survivor count not shown]
same,T/C,"T/C endpoint: median survival time, dose: 0.12 mg/kg/injection, schedule: Q01DX009 (ip), vehicle: saline, higher T/C = longer survival",105 % of control [survivor count not shown]
same,T/C,"T/C endpoint: median survival time, dose: 0.25 mg/kg/injection, schedule: Q01DX009 (ip), vehicle: saline, higher T/C = longer survival",103 % of control [survivor count not shown]
same,T/C,"T/C endpoint: median survival time, dose: 7.5 micrograms/kg/injection, schedule: Q01DX009 (ip), vehicle: saline, higher T/C = longer survival",95 % of control [survivor count not shown]
same,T/C,"T/C endpoint: median survival time, dose: 15.0 micrograms/kg/injection, schedule: Q01DX009 (ip), vehicle: saline, higher T/C = longer survival",102 % of control [survivor count not shown]
same,T/C,"T/C endpoint: median survival time, dose: 30.0 micrograms/kg/injection, schedule: Q01DX009 (ip), vehicle: saline, higher T/C = longer survival",110 % of control [survivor count not shown]
same,T/C,"T/C endpoint: median survival time, dose: 60.0 micrograms/kg/injection, schedule: Q01DX009 (ip), vehicle: saline, higher T/C = longer survival",97 % of control [survivor count not shown]
COc1cc(CN(CCCl)CCBr)cc(OC)c1,T/C,"T/C endpoint: median survival time, dose: 0.75 mg/kg/injection, schedule: Q01DX009 (ip), vehicle: saline, higher T/C = longer survival",125 % of control [survivor count not shown]
same,T/C,"T/C endpoint: median survival time, dose: 1.5 mg/kg/injection, schedule: Q01DX009 (ip), vehicle: saline, higher T/C = longer survival",96 % of control [survivor count not shown]
same,T/C,"T/C endpoint: median survival time, dose: 3.0 mg/kg/injection, schedule: Q01DX009 (ip), vehicle: saline, higher T/C = longer survival",124 % of control [survivor count not shown]
same,T/C,"T/C endpoint: median survival time, dose: 6.0 mg/kg/injection, schedule: Q01DX009 (ip), vehicle: saline, higher T/C = longer survival",107 % of control [survivor count not shown]
CC1(C)NC(=O)N(CCN(CCCl)CCCl)C1=O,T/C,"T/C endpoint: median survival time, dose: 0.19 mg/kg/injection, schedule: Q01DX009 (ip), vehicle: Klucel (hydroxypropylcellulose) (HPC), higher T/C = longer survival",107 % of control [survivor count not shown]
same,T/C,"T/C endpoint: median survival time, dose: 0.39 mg/kg/injection, schedule: Q01DX009 (ip), vehicle: Klucel (hydroxypropylcellulose) (HPC), higher T/C = longer survival",165 % of control [survivor count not shown]
same,T/C,"T/C endpoint: median survival time, dose: 0.78 mg/kg/injection, schedule: Q01DX009 (ip), vehicle: Klucel (hydroxypropylcellulose) (HPC), higher T/C = longer survival",89 [survivor count not shown] and 114 % of control [survivor count not shown]
same,T/C,[5],93 [survivor count not shown] and 140 % of control [survivor count not shown]
same,T/C,[6],102 [survivor count not shown] and 180 % of control [survivor count not shown]
NC1CCCCC1.NP(=O)(O)N(CCCl)CCCl,T/C,"T/C endpoint: median survival time, dose: 50.0 mg/kg/injection, schedule: Q01DX001 (ip), vehicle: water, evaluated on day 49, higher T/C = longer survival",108 % of control
same,T/C,"T/C endpoint: median survival time, dose: 50.0 mg/kg/injection, schedule: Q01DX001 (ip), vehicle: water, evaluated on day 60, higher T/C = longer survival",109 % of control
same,T/C,"T/C endpoint: median survival time, dose: 100.0 mg/kg/injection, schedule: Q01DX001 (ip), vehicle: water, evaluated on day 49, higher T/C = longer survival",137 % of control
same,T/C,"T/C endpoint: median survival time, dose: 100.0 mg/kg/injection, schedule: Q01DX001 (ip), vehicle: water, evaluated on day 60, higher T/C = longer survival",138 % of control
same,T/C,"T/C endpoint: median survival time, dose: 200.0 mg/kg/injection, schedule: Q01DX001 (ip), vehicle: water, evaluated on day 49, higher T/C = longer survival",145 % of control [7 of 10 alive on day 49]
same,T/C,"T/C endpoint: median survival time, dose: 200.0 mg/kg/injection, schedule: Q01DX001 (ip), vehicle: water, evaluated on day 60, higher T/C = longer survival",154 % of control
same,survivor count,"T/C endpoint: median survival time, dose: 400.0 mg/kg/injection, schedule: Q01DX001 (ip), vehicle: water, higher T/C = longer survival",0 of 10 on day 49 and 3 of 10
same,survivor count,"T/C endpoint: median survival time, dose: 800.0 mg/kg/injection, schedule: Q01DX001 (ip), vehicle: water, higher T/C = longer survival",0 of 10 and 0 of 10 on day 49
O=C(O)CN(CCCl)CCCl,T/C,"T/C endpoint: mean tumor weight, dose: 1.0 mg/kg/injection, schedule: Q01DX011 (ip), vehicle: saline, evaluation day not shown, higher T/C = larger tumour",54 % of control [survivor count not shown]
same,T/C,[3],53 % of control [survivor count not shown]
same,T/C,[4],28 % of control [survivor count not shown]
O=C(CCN(CCCl)CCCl)c1cccc([N+](=O)[O-])c1,T/C,"T/C endpoint: median survival time, dose: 3.0 mg/kg/injection, schedule: Q01DX009 (ip), vehicle: Klucel (hydroxypropylcellulose) (HPC), higher T/C = longer survival",109 % of control [survivor count not shown]
same,T/C,"T/C endpoint: median survival time, dose: 6.0 mg/kg/injection, schedule: Q01DX009 (ip), vehicle: Klucel (hydroxypropylcellulose) (HPC), higher T/C = longer survival",109 % of control [survivor count not shown]
BrCCN(CCBr)c1ccc2c(c1)Cc1ccccc1-2,T/C,[7],120 % of control [survivor count not shown]
same,T/C,[8],97 % of control [survivor count not shown]
same,T/C,"T/C endpoint: median survival time, dose: 12.0 mg/kg/injection, schedule: Q01DX009 (ip), vehicle: saline with Tween-80, higher T/C = longer survival",95 % of control [survivor count not shown]
same,T/C,[9],112 % of control [survivor count not shown]
same,T/C,"T/C endpoint: median survival time, dose: 48.0 mg/kg/injection, schedule: Q01DX009 (ip), vehicle: saline with Tween-80, higher T/C = longer survival",101 % of control [survivor count not shown]
ClCCN(CCCl)c1ccccc1,T/C,[7],108 % of control [survivor count not shown]
same,T/C,[8],107 % of control [survivor count not shown]
same,T/C,[9],137 % of control [survivor count not shown]
ClCCN(CCCl)Cc1nc2ccc(Cl)cc2[nH]1,T/C,"T/C endpoint: mean tumor weight, dose: 1.5 mg/kg/injection, schedule: Q01DX011 (ip), vehicle: other, evaluation day not shown, higher T/C = larger tumour",106 % of control [survivor count not shown]
same,T/C,[1],85 % of control [survivor count not shown]
same,T/C,[2],77 % of control [survivor count not shown]
COc1cccc(N(CCCl)CCCl)c1OC,T/C,"T/C endpoint: mean tumor weight, dose: 7.5 mg/kg/injection, schedule: Q01DX011 (ip), vehicle: saline, evaluation day not shown, higher T/C = larger tumour",61 % of control [survivor count not shown]
same,T/C,"T/C endpoint: mean tumor weight, dose: 15.0 mg/kg/injection, schedule: Q01DX011 (ip), vehicle: saline, evaluation day not shown, higher T/C = larger tumour",70 % of control [survivor count not shown]
same,T/C,"T/C endpoint: mean tumor weight, dose: 60.0 mg/kg/injection, schedule: Q01DX011 (ip), vehicle: saline, evaluation day not shown, higher T/C = larger tumour",47 % of control [survivor count not shown]
Cc1ccc(C(=O)O)cc1N(CCCl)CCCl,T/C,[5],"102 [survivor count not shown], 113 [survivor count not shown], 187 % of control [survivor count not shown]"
same,T/C,[6],102 % of control [survivor count not shown]
same,T/C,"T/C endpoint: median survival time, dose: 3.13 mg/kg/injection, schedule: Q01DX009 (ip), vehicle: Klucel (hydroxypropylcellulose) (HPC), higher T/C = longer survival",99 % of control [survivor count not shown]
same,T/C,"T/C endpoint: median survival time, dose: 6.25 mg/kg/injection, schedule: Q01DX009 (ip), vehicle: Klucel (hydroxypropylcellulose) (HPC), higher T/C = longer survival","100 [survivor count not shown], 103 [survivor count not shown], 187 % of control [survivor count not shown]"
same,T/C,"T/C endpoint: median survival time, dose: 12.5 mg/kg/injection, schedule: Q01DX009 (ip), vehicle: Klucel (hydroxypropylcellulose) (HPC), higher T/C = longer survival",187 % of control [survivor count not shown]
